Test results as given in PMC8490708.

Columns and labels:
CBX4-BirA* (human) = target: T1, CBX4-BirA* (human) (UniProt O00257); assay: proximity labelling; BioID: BirA* fusion co-transfected with HA-tagged SALL1 in HEK 293FT cells, biotin added; lysis in 8 M urea, 1% SDS; NeutrAvidin-agarose pulldown of biotinylated material, stringent washes, Western blot with anti-HA
T1 sequence: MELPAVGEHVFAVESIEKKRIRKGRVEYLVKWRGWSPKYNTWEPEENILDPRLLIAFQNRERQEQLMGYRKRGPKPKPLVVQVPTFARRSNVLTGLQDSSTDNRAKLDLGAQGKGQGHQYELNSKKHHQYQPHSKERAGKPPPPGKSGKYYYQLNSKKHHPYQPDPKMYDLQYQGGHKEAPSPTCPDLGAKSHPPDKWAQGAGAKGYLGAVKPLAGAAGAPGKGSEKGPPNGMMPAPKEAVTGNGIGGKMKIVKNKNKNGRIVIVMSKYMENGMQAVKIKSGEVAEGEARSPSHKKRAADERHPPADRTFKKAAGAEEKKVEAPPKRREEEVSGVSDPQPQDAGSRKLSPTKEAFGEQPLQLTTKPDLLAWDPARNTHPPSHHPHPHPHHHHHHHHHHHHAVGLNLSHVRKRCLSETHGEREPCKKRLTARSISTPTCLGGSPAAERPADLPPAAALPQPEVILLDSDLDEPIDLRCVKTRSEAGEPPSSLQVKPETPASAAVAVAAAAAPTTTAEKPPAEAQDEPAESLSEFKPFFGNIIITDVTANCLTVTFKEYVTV

[1] = target: T2, DmPc-BirA* (Drosophila melanogaster) (UniProt P26017); assay: as above
T2 sequence: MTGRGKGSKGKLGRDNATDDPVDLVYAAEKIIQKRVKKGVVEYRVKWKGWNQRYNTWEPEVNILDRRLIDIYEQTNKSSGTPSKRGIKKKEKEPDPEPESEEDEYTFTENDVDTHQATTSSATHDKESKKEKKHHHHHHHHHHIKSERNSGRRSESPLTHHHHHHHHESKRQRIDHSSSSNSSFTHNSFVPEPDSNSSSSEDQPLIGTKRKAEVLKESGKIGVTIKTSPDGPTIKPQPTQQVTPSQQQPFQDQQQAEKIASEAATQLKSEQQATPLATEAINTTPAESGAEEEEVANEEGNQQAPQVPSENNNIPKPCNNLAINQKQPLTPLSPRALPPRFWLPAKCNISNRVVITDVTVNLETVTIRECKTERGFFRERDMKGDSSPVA

Molecule: SALL1^826-2xHA (human) (domain or fragment)
- binding (CBX4-BirA* (human)): binds

- binding (CBX4-BirA* (human)): binds
- binding [1]: binds
B1: SALL1-2xHA (protein, UniProt Q9NSC2 1-1324)
chain: MSRRKQAKPQHFQSDPEVASLPRRDGDTEKGQPSRPTKSKDAHVCGRCCAEFFELSDLLLHKKNCTKNQLVLIVNENPASPPETFSPSPPPDNPDEQMNDTVNKTDQVDCSDLSEHNGLDREESMEVEAPVANKSGSGTSSGSHSSTAPSSSSSSSSSSGGGGSSSTGTSAITTSLPQLGDLTTLGNFSVINSNVIIENLQSTKVAVAQFSQEARCGGASGGKLAVPALMEQLLALQQQQIHQLQLIEQIRHQILLLASQNADLPTSSSPSQGTLRTSANPLSTLSSHLSQQLAAAAGLAQSLASQSASISGVKQLPPIQLPQSSSGNTIIPSNSGSSPNMNILAAAVTTPSSEKVASSAGASHVSNPAVSSSSSPAFAISSLLSPASNPLLPQQASANSVFPSPLPNIGTTAEDLNSLSALAQQRKSKPPNVTAFEAKSTSDEAFFKHKCRFCAKVFGSDSALQIHLRSHTGERPFKCNICGNRFSTKGNLKVHFQRHKEKYPHIQMNPYPVPEHLDNIPTSTGIPYGMSIPPEKPVTSWLDTKPVLPTLTTSVGLPLPPTLPSLIPFIKTEEPAPIPISHSATSPPGSVKSDSGGPESATRNLGGLPEEAEGSTLPPSGGKSEESGMVTNSVPTASSSVLSSPAADCGPAGSATTFTNPLLPLMSEQFKAKFPFGGLLDSAQASETSKLQQLVENIDKKATDPNECIICHRVLSCQSALKMHYRTHTGERPFKCKICGRAFTTKGNLKTHYSVHRAMPPLRVQHSCPICQKKFTNAVVLQQHIRMHMGGQIPNTPVPDSYSESMESDTGSFDEKNFDDLDNFSDENMEDCPEGSIPDTPKSADASQDSLSSSPLPLEMSSIAALENQMKMINAGLAEQLQASLKSVENGSIEGDVLTNDSSSVGGDMESQSAGSPAISESTSSMQALSPSNSTQEFHKSPSIEEKPQRAVPSEFANGLSPTPVNGGALDLTSSHAEKIIKEDSLGILFPFRDRGKFKNTACDICGKTFACQSALDIHYRSHTKERPFICTVCNRGFSTKGNLKQHMLTHQMRDLPSQLFEPSSNLGPNQNSAVIPANSLSSLIKTEVNGFVHVSPQDSKDTPTSHVPSGPLSSSATSPVLLPALPRRTPKQHYCNTCGKTFSSSSALQIHERTHTGEKPFACTICGRAFTTKGNLKVHMGTHMWNSTPARRGRRLSVDGPMTFLGGNPVKFPEMFQKDLAARSGSGDPSSFWNQYAAALSNGLAMKANEISVIQNGGIPPIPGSLGSGNSSPVSGLTGNLERLQNSEPNAPLAGLEKMASSENGTNFRFTRFVEDSKEIVTS

No constants are given. Whether binding was seen depends on the method and setting. In cells and extracts the contact can be indirect. Here binding means that the protein was enriched with, or labelled near, the bait; the list need not be complete. Each block holds one molecule with its values, some of them ahead of it.
